Source: PMC7124466
These are yes or no findings as the source states them, for the method shown. In cells and extracts the contact can be indirect. Some binding calls cover weakened binding; strength is not graded here.

Sequences of proteins named here, by UniProt entry; tags and fusion partners are left off.
UniProt P18239: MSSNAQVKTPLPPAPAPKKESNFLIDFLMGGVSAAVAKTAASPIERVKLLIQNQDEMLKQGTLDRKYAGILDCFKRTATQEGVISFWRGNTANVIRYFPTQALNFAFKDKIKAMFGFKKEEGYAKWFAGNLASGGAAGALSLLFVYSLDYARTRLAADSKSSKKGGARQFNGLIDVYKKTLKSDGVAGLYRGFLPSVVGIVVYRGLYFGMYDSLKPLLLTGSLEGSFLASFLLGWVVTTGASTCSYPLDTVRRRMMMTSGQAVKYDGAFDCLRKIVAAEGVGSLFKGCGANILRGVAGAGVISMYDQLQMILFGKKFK

Assays:
Assay in all cases: cross-linking; intact purified yeast mitochondria (5 mg/ml, isotonic buffer: 250 mM sucrose, 1 mM EDTA, 10 mM MOPS-KOH, pH 7.2) crosslinked in organello with 2 mM CBDPS-H8/D8, 21 °C 10 min then on ice 110 min; Lys-Lys inter-protein crosslinked peptides enriched (SCX, avidin) and identified by LC-MS/MS, FDR 2%
[1] = target: T1, ATP7 (yeast (endogenous in mitochondria of strain YPH499)) (UniProt P30902)
T1 sequence: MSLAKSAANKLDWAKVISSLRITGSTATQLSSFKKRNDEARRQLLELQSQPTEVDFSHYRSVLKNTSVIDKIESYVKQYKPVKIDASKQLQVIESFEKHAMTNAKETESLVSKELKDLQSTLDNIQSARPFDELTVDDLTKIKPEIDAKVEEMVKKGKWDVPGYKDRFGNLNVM

[2] = target: T2, ATP5 (yeast (endogenous in mitochondria of strain YPH499)) (UniProt P09457)
T2 sequence: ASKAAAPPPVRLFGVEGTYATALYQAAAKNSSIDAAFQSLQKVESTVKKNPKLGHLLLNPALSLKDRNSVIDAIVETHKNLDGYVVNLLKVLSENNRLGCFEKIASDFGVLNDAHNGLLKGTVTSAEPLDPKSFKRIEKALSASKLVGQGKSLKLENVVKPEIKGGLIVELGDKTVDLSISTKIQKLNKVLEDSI

[3] = target: T3, ATP20 (yeast (endogenous in mitochondria of strain YPH499)) (UniProt Q12233)
T3 sequence: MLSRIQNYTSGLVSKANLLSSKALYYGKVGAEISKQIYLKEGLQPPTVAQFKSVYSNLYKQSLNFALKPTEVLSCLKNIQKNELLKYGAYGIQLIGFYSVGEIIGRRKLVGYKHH

[4] = target: T4, ILV6 (yeast (endogenous in mitochondria of strain YPH499)) (UniProt P25605)
T4 sequence: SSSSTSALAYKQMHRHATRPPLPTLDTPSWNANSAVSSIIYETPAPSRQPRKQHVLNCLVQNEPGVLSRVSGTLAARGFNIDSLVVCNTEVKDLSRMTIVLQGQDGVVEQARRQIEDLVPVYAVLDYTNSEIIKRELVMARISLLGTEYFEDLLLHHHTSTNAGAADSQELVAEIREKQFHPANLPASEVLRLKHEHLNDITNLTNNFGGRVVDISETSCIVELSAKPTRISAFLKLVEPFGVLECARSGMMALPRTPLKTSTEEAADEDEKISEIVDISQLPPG

[5] = target: T5, ATP17 (yeast (endogenous in mitochondria of strain YPH499)) (UniProt Q06405)
T5 sequence: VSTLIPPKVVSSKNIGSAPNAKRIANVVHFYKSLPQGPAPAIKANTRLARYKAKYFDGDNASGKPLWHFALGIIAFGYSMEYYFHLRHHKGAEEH

[6] = target: T6, QCR2 (yeast (endogenous in mitochondria of strain YPH499)) (UniProt P07257)
T6 sequence: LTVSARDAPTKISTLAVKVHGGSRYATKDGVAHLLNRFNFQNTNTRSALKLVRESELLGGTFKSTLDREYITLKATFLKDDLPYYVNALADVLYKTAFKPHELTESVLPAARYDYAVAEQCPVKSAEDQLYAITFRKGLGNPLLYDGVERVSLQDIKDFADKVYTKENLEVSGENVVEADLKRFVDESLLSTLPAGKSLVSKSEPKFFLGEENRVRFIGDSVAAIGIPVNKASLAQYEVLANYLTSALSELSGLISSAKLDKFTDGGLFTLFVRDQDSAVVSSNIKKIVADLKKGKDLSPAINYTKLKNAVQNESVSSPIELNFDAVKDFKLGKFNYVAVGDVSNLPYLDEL

[7] = target: PET9 (yeast (endogenous in mitochondria of strain YPH499)) (UniProt P18239)
[8] = target: T7, KGD1 (yeast (endogenous in mitochondria of strain YPH499)) (UniProt P20967)
T7 sequence: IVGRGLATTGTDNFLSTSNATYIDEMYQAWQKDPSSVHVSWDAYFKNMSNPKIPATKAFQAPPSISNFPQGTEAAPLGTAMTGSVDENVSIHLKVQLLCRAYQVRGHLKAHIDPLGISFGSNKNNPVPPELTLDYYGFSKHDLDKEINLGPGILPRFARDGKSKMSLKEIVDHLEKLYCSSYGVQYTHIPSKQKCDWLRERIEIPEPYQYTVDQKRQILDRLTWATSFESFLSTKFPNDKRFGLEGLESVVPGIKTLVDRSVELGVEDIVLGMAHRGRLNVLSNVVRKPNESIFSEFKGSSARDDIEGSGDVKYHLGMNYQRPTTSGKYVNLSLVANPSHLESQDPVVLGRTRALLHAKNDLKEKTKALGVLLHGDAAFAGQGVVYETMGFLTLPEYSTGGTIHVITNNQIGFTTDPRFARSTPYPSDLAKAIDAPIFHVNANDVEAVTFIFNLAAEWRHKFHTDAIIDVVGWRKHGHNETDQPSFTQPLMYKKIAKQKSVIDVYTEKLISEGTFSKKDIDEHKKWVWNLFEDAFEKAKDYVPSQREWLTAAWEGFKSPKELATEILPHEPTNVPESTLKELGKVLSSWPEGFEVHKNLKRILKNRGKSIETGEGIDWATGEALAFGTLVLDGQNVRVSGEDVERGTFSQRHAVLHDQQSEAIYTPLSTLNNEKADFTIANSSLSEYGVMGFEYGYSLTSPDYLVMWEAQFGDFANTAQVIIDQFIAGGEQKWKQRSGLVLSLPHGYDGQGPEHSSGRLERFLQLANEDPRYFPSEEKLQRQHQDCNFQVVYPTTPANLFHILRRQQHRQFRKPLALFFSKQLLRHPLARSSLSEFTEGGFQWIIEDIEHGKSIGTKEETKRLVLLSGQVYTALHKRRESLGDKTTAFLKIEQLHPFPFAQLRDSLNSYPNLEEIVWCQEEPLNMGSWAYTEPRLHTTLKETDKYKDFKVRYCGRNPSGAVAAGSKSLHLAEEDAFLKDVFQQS

B1: ATP4 (protein, UniProt P05626 36-244)
chain: MSSTPEKQTDPKAKANSIINAIPGNNILTKTGVLGTSAAAVIYAISNELYVINDESILLLTFLGFTGLVAKYLAPAYKDFADARMKKVSDVLNASRNKHVEAVKDRIDSVSQLQNVAETTKVLFDVSKETVELESEAFELKQKVELAHEAKAVLDSWVRYEASLRQLEQRQLAKSVISRVQSELGNPKFQEKVLQQSISEIEQLLSKLK
With B1 the binding [1] was “binds”, the binding [2] was “binds” and the binding [3] was “binds”.

B2: ILV2 (protein, UniProt P07342 91-687)
chain: GLTGGQIFNEMMSRQNVDTVFGYPGGAILPVYDAIHNSDKFNFVLPKHEQGAGHMAEGYARASGKPGVVLVTSGPGATNVVTPMADAFADGIPMVVFTGQVPTSAIGTDAFQEADVVGISRSCTKWNVMVKSVEELPLRINEAFEIATSGRPGPVLVDLPKDVTAAILRNPIPTKTTLPSNALNQLTSRAQDEFVMQSINKAADLINLAKKPVLYVGAGILNHADGPRLLKELSDRAQIPVTTTLQGLGSFDQEDPKSLDMLGMHGCATANLAVQNADLIIAVGARFDDRVTGNISKFAPEARRAAAEGRGGIIHFEVSPKNINKVVQTQIAVEGDATTNLGKMMSKIFPVKERSEWFAQINKWKKEYPYAYMEETPGSKIKPQTVIKKLSKVANDTGRHVIVTTGVGQHQMWAAQHWTWRNPHTFITSGGLGTMGYGLPAAIGAQVAKPESLVIDIDGDASFNMTLTELSSAVQAGTPVKILILNNEEQGMVTQWQSLFYEHRYSHTHQLNPDFIKLAEAMGLKGLRVKKQEELDAKLKEFVSTKGPVLLEVEVDKKVPVLPMVAGGSGLDEFINFDPEVERQQTELRHKRTGGKH
In the case of B2, the binding [4] is reported as “binds”.

B3: ATP7 (protein, UniProt P30902 1-174)
chain: MSLAKSAANKLDWAKVISSLRITGSTATQLSSFKKRNDEARRQLLELQSQPTEVDFSHYRSVLKNTSVIDKIESYVKQYKPVKIDASKQLQVIESFEKHAMTNAKETESLVSKELKDLQSTLDNIQSARPFDELTVDDLTKIKPEIDAKVEEMVKKGKWDVPGYKDRFGNLNVM
For B3, the binding [5] was “binds”.

B4: COR1 (protein, UniProt P07256 27-457)
chain: AEVTQLSNGIVVATEHNPSAHTASVGVVFGSGAANENPYNNGVSNLWKNIFLSKENSAVAAKEGLALSSNISRDFQSYIVSSLPGSTDKSLDFLNQSFIQQKANLLSSSNFEATKKSVLKQVQDFEENDHPNRVLEHLHSTAFQNTPLSLPTRGTLESLENLVVADLESFANNHFLNSNAVVVGTGNIKHEDLVNSIESKNLSLQTGTKPVLKKKAAFLGSEVRLRDDTLPKAWISLAVEGEPVNSPNYFVAKLAAQIFGSYNAFEPASRLQGIKLLDNIQEYQLCDNFNHFSLSYKDSGLWGFSTATRNVTMIDDLIHFTLKQWNRLTISVTDTEVERAKSLLKLQLGQLYESGNPVNDANLLGAEVLIKGSKLSLGEAFKKIDAITVKDVKAWAGKRLWDQDIAIAGTGQIEGLLDYMRIRSDMSMMRW
In the case of B4, the binding [6] is reported as “binds”.

B5: AAC1 (protein, UniProt P04710 1-309)
chain: MSHTETQTQQSHFGVDFLMGGVSAAIAKTGAAPIERVKLLMQNQEEMLKQGSLDTRYKGILDCFKRTATHEGIVSFWRGNTANVLRYFPTQALNFAFKDKIKSLLSYDRERDGYAKWFAGNLFSGGAAGGLSLLFVYSLDYARTRLAADARGSKSTSQRQFNGLLDVYKKTLKTDGLLGLYRGFVPSVLGIIVYRGLYFGLYDSFKPVLLTGALEGSFVASFLLGWVITMGASTASYPLDTVRRRMMMTSGQTIKYDGALDCLRKIVQKEGAYSLFKGCGANIFRGVAAAGVISLYDQLQLIMFGKKFK
In the case of B5, the binding [7] is reported as “binds”.

B6: YMR31 (protein, UniProt P19955 9-123)
chain: AKSAYEPMIKFVGTRHPLVKHATEVVVHPCATNGMLPGSKECIPVSKFMENYKPFRVVPIKHSANAGLSSSKTSVFVNRPLQKDELASIFELPARFRYKPINEHELESINSGGAW
With B6 the binding [8] was “binds”.
